In the supplement of paper PMC8728848:
This is one part of the list.

Tests used:
Assay in all cases: glycan array binding signal (z-score within array); higher = stronger binding
Conditions in all cases: glycan notation: IUPAC condensed, linker removed
[1] = target: Gal(b1-4)GlcNAc(b1-3)Gal(b1-4)GlcNAc(b1-6)[Gal(b1-3)]GalNAc
Procedure, shortened: (§1)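 Glycan array data were curated from 3228 arrays in the Consortium for Functional Glycomics database and kept only where the protein sequence was available. Glycan names were converted to IUPAC-condensed notation, and columns mapping to the same glycan were averaged. The binding signal is a within-array Z-score, averaged across arrays of the same protein sequence at different concentrations or buffers and across linkers. Negative Z-scores can be read as non-binding.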

[2] = target: Gal(b1-4)GlcNAc(b1-3)Gal(b1-4)[Fuc(a1-3)]GlcNAc(b1-3)Gal(b1-4)[Fuc(a1-3)]GlcNAc
Procedure, shortened: as §1

[3] = target: Gal(b1-4)GlcNAc(b1-3)GalNAc
Procedure, shortened: as §1

[4] = target: Gal(b1-4)GlcNAc(b1-3)[Fuc(a1-3)GlcNAc(b1-6)]Gal(b1-4)Glc
Procedure, shortened: as §1

[5] = target: Gal(b1-4)GlcNAc(b1-3)[Gal(b1-4)GlcNAc(b1-6)]Gal(b1-4)GlcNAc
Procedure, shortened: as §1

[6] = target: Gal(b1-4)GlcNAc(b1-3)[GlcNAc(b1-6)]Gal(b1-4)GlcNAc
Procedure, shortened: as §1

[7] = target: Gal(b1-4)GlcNAc(b1-6)Gal(b1-4)GlcNAc
Procedure, shortened: as §1

[8] = target: Gal(b1-4)GlcNAc(b1-6)GalNAc
Procedure, shortened: as §1

[9] = target: Gal(b1-4)GlcNAc(b1-6)[Gal(b1-3)]GalNAc
Procedure, shortened: as §1

[10] = target: Gal(b1-4)GlcNAc(b1-6)[Gal(b1-4)GlcNAc(b1-3)]GalNAc
Procedure, shortened: as §1

Gal(b1-4)GlcNAc6P = target: Gal(b1-4)GlcNAc6P
Procedure, shortened: as §1

Gal(b1-6)Gal = target: Gal(b1-6)Gal
Procedure, shortened: as §1

Gal3S(b1-3)GalNAc = target: Gal3S(b1-3)GalNAc
Procedure, shortened: as §1

Gal3S(b1-3)GlcNAc = target: Gal3S(b1-3)GlcNAc
Procedure, shortened: as §1

[11] = target: Gal3S(b1-3)[Fuc(a1-4)]GlcNAc
Procedure, shortened: as §1

Gal3S(b1-4)Glc = target: Gal3S(b1-4)Glc
Procedure, shortened: as §1

Gal3S(b1-4)Glc6S = target: Gal3S(b1-4)Glc6S
Procedure, shortened: as §1

Gal3S(b1-4)GlcNAc = target: Gal3S(b1-4)GlcNAc
Procedure, shortened: as §1

[12] = target: Gal3S(b1-4)[Fuc(a1-3)]Glc6S
Procedure, shortened: as §1

[13] = target: Gal3S(b1-4)[Fuc(a1-3)]GlcNAc
Procedure, shortened: as §1

[14] = target: Gal3S(b1-4)[Fuc(a1-3)]GlcNAc6S
Procedure, shortened: as §1

Gal3S4S(b1-4)GlcNAc = target: Gal3S4S(b1-4)GlcNAc
Procedure, shortened: as §1

Gal3S6S(b1-4)GlcNAc = target: Gal3S6S(b1-4)GlcNAc
Procedure, shortened: as §1

Gal3S6S(b1-4)GlcNAc6S = target: Gal3S6S(b1-4)GlcNAc6S
Procedure, shortened: as §1

Gal4S(b1-4)GlcNAc = target: Gal4S(b1-4)GlcNAc
Procedure, shortened: as §1

Gal4S6S(b1-4)GlcNAc = target: Gal4S6S(b1-4)GlcNAc
Procedure, shortened: as §1

Gal6P(b1-4)GlcNAc = target: Gal6P(b1-4)GlcNAc
Procedure, shortened: as §1

Gal6S(b1-3)GlcNAc = target: Gal6S(b1-3)GlcNAc
Procedure, shortened: as §1

Gal6S(b1-3)GlcNAc6S = target: Gal6S(b1-3)GlcNAc6S
Procedure, shortened: as §1

Gal6S(b1-4)Glc = target: Gal6S(b1-4)Glc
Procedure, shortened: as §1

Gal6S(b1-4)Glc6S = target: Gal6S(b1-4)Glc6S
Procedure, shortened: as §1

Gal6S(b1-4)GlcNAc = target: Gal6S(b1-4)GlcNAc
Procedure, shortened: as §1

Gal6S(b1-4)GlcNAc6S = target: Gal6S(b1-4)GlcNAc6S
Procedure, shortened: as §1

GalNAc(a1-3)Gal = target: GalNAc(a1-3)Gal
Procedure, shortened: as §1

GalNAc(a1-3)GalNAc = target: GalNAc(a1-3)GalNAc
Procedure, shortened: as §1

[15] = target: GalNAc(a1-3)GalNAc(b1-3)Gal(a1-4)Gal(b1-4)Glc
Procedure, shortened: as §1

[16] = target: GalNAc(a1-3)GalNAc(b1-3)Gal(a1-4)Gal(b1-4)GlcNAc
Procedure, shortened: as §1

GalNAc(b1-3)Gal = target: GalNAc(b1-3)Gal
Procedure, shortened: as §1

[17] = target: GalNAc(b1-3)Gal(a1-4)Gal(b1-4)GlcNAc
Procedure, shortened: as §1

[18] = target: GalNAc(b1-3)Gal(a1-4)Gal(b1-4)GlcNAc(b1-3)Gal(b1-4)Glc
Procedure, shortened: as §1

[19] = target: GalNAc(b1-3)Gal(a1-6)Gal(b1-4)Glc
Procedure, shortened: as §1

GalNAc(b1-3)GalNAc = target: GalNAc(b1-3)GalNAc
Procedure, shortened: as §1

GalNAc(b1-3)GlcNAc = target: GalNAc(b1-3)GlcNAc
Procedure, shortened: as §1

GalNAc(b1-4)Gal(b1-4)Glc = target: GalNAc(b1-4)Gal(b1-4)Glc
Procedure, shortened: as §1

GalNAc(b1-4)GlcNAc = target: GalNAc(b1-4)GlcNAc
Procedure, shortened: as §1

B1: pilr alpha (protein)
chain: MLYGVTQPKHLSASMGGSVEIPFSFYYPWELATAPDVRISWRRGHFHRQSFYSTRPPSIHKDYVNRLFLNWTEGQKSGFLRISNLQKQDQSVYFCRVELDTRSSGRQQWQSIEGTKLSIT
glycan array binding signal (z-score) [1]: 0.013 | glycan array binding signal (z-score) [2]: 0.352 | glycan array binding signal (z-score) [3]: -0.014 | glycan array binding signal (z-score) [4]: -0.533 | glycan array binding signal (z-score) [5]: -0.099 | glycan array binding signal (z-score) [6]: -0.059 | glycan array binding signal (z-score) [7]: -0.538 | glycan array binding signal (z-score) [8]: 0.367 | glycan array binding signal (z-score) [9]: -0.204 | glycan array binding signal (z-score) [10]: 0.5 | glycan array binding signal (z-score) (Gal(b1-4)GlcNAc6P): -0.424 | glycan array binding signal (z-score) (Gal(b1-6)Gal): -0.56 | glycan array binding signal (z-score) (Gal3S(b1-3)GalNAc): -0.408 | glycan array binding signal (z-score) (Gal3S(b1-3)GlcNAc): -0.224 | glycan array binding signal (z-score) [11]: 0.119 | glycan array binding signal (z-score) (Gal3S(b1-4)Glc): 0.738 | glycan array binding signal (z-score) (Gal3S(b1-4)Glc6S): -0.075 | glycan array binding signal (z-score) (Gal3S(b1-4)GlcNAc): -0.09 | glycan array binding signal (z-score) [12]: 1.22 | glycan array binding signal (z-score) [13]: -0.482 | glycan array binding signal (z-score) [14]: 0.259 | glycan array binding signal (z-score) (Gal3S4S(b1-4)GlcNAc): -0.588 | glycan array binding signal (z-score) (Gal3S6S(b1-4)GlcNAc): -0.574 | glycan array binding signal (z-score) (Gal3S6S(b1-4)GlcNAc6S): 1.52 | glycan array binding signal (z-score) (Gal4S(b1-4)GlcNAc): -0.097 | glycan array binding signal (z-score) (Gal4S6S(b1-4)GlcNAc): 0.664 | glycan array binding signal (z-score) (Gal6P(b1-4)GlcNAc): -0.402 | glycan array binding signal (z-score) (Gal6S(b1-3)GlcNAc): -0.425 | glycan array binding signal (z-score) (Gal6S(b1-3)GlcNAc6S): -0.05 | glycan array binding signal (z-score) (Gal6S(b1-4)Glc): 0.108 | glycan array binding signal (z-score) (Gal6S(b1-4)Glc6S): -0.56 | glycan array binding signal (z-score) (Gal6S(b1-4)GlcNAc): 0.649 | glycan array binding signal (z-score) (Gal6S(b1-4)GlcNAc6S): -0.583 | glycan array binding signal (z-score) (GalNAc(a1-3)Gal): 0.654 | glycan array binding signal (z-score) (GalNAc(a1-3)GalNAc): -0.176 | glycan array binding signal (z-score) [15]: -0.201 | glycan array binding signal (z-score) [16]: -0.443 | glycan array binding signal (z-score) (GalNAc(b1-3)Gal): -0.373 | glycan array binding signal (z-score) [17]: 2.72 | glycan array binding signal (z-score) [18]: -0.895 | glycan array binding signal (z-score) [19]: -0.342 | glycan array binding signal (z-score) (GalNAc(b1-3)GalNAc): 0.066 | glycan array binding signal (z-score) (GalNAc(b1-3)GlcNAc): -0.236 | glycan array binding signal (z-score) (GalNAc(b1-4)Gal(b1-4)Glc): -0.226 | glycan array binding signal (z-score) (GalNAc(b1-4)GlcNAc): 8.03
